Results: patent US8530475B2, “Bridged aryl piperazines derivatives useful for the treatment of CNS, GI-urinary and reproductive disorders” (Janssen Pharmaceutica NV, priority 2006, dated 2013)
Structures were worked out from names or drawings and are uncertain.

Sequences of proteins named here, by UniProt entry; tags and fusion partners are left off.
UniProt P31645, whole entry: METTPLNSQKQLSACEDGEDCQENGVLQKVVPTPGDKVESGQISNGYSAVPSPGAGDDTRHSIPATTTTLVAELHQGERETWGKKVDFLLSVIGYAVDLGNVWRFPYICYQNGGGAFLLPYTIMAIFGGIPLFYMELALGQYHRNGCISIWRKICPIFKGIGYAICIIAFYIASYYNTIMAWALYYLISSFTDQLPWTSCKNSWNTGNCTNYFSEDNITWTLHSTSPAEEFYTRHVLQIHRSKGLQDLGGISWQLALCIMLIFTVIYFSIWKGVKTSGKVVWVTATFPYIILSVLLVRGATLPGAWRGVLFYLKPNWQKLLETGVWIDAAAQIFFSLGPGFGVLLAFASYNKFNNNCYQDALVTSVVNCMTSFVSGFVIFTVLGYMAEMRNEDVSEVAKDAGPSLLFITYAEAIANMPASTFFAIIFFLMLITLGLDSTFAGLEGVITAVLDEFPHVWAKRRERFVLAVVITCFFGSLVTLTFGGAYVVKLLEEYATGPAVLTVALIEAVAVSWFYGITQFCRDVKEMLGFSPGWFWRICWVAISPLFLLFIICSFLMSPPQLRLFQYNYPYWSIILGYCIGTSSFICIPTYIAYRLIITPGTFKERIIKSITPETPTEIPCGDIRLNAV
UniProt P08908, whole entry: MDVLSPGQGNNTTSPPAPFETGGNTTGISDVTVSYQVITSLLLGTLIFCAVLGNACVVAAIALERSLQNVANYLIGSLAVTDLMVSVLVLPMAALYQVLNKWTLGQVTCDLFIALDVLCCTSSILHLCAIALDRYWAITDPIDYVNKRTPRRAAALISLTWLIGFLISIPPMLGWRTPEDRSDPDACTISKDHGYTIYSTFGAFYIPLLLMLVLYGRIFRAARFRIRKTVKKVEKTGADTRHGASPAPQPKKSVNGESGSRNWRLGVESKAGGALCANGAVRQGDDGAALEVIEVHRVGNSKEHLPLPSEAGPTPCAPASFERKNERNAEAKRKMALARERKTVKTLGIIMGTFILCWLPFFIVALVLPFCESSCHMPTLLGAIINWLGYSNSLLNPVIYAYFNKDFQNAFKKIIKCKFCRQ

Assays:
[1] = target: human 5-HTT (Homo sapiens, UniProt P31645); assay: Radioligand binding to 5-HTT (serotonin transporter, SERT), [3H]Paroxetine; conditions: Example 77; membranes of HEK293 cells, [3H]Paroxetine 0.5 nM; <5 = not active at up to 10 μM
Experimental: For 5-HTT binding, frozen membranes of HEK293 cells stably-transfected with human 5-HTT (Perkin-Elmer, USA) were thawed on ice, briefly homogenised and resuspended in Tris-HCl buffer (50 mM, pH 7.4) supplemented with NaCl (120 mM) and KCl (5 mM) at a concentration of 50 μg protein per incubation mixture. The membrane suspension was added to the test compound together with [^3H]Paroxetine (0.5 nM) in a total volume of 250 μl and incubated (60 min, 25° C.). Non-specific binding was determined in the presence of imipramine (1 μM). Filtration was done over pre-soaked GF/B unifilters (0.01% PEI) and washed as above with the Tris-HCl salt buffer used for the incubation. Specific binding was calculated and sigmoidal curves were plotted by an internally-developed software program based on S-plus software. Ki values were calculated using the Cheng-Prusoff equation.

[2] = target: T1, human 5HT1A receptor (Homo sapiens, UniProt P08908); assay: Radioligand binding to the 5-HT1A receptor, [3H]8-OH-DPAT; conditions: Example 77; membranes of HEK293 cells, [3H]8-OH-DPAT 0.5 nM; <5 = not active at up to 10 μM
Experimental: Frozen membranes of HEK293 cells, stably-transfected with human 5-HT1A receptor (Perkin Elmer) were thawed on ice, briefly homogenised with an Ultra Turrax homogeniser and then suspended in Tris-HCl buffer (50 mM pH 7.7) supplemented with CaCl2 (4 mM) at an appropriate pre-determined protein concentration (5-10 μg protein per incubation mixture). Together with [^3H]8-OH-DPAT (0.5 nM final concentration; Perkin Elmer, USA), the membrane suspension was added to the test compound and incubated (30 min at 37° C.) in a total volume of 400 μl. Non-specific binding was determined in the presence of Spiroxatrine (1 μM). Free radioligand was separated from the radioligand-receptor complex by means of rapid vacuum filtration over GF/B unifilter plates with a Packard Harvester Filtration Unit. Unifilter plates were washed with ice cold Tris-HCl buffer (50 mM, pH 8.0) and then dried overnight. Bound counts were measured in a Topcount Scintillation Counter in the presence of Microscint O.

[3] = target: T1, human 5HT1A receptor; assay: [35S]GTPγS binding for 5-HT1A receptor inhibition (antagonist mode); conditions: Example 78, HEK293 membranes, antagonist mode with serotonin 100 nM, <5 = not active at up to 10 μM
Experimental: Compounds showing affinity at the 5-HT1A receptor were tested for functional agonism and antagonism in a [^35S]GTPγS (guanine triphosphate (non-hydrolysable, labelled with ^35S) binding assay on membranes of HEK293 cells permanently transfected with human 5HT1A receptor (Perkin Elmer, USA).
Frozen membranes were thawed, briefly homogenized and were diluted in incubation buffer, 100 mM NaCl, 0.3 mM MgCl2 and 10 μM guanine diphosphate (GDP), pH 7.4-7.5) supplemented with 10 μg/ml saponin. Assay mixtures contained 10 μg of membrane protein and test compound, buffer, or control agonist (serotonin, 10 μM). For the antagonistic assay, control agonist was present in all wells containing compound at a sub-maximal concentration (serotonin, 100 nM). After 20 minutes pre-incubation at 37° C., [^35S]GTPγS was added to a final concentration of 0.25 nM, briefly shaken and further incubated for another 20 minutes. Reactions were terminated by rapid vacuum filtration through GF/B unifilter plates using a Packard Harvester. Filters were washed three times with wash buffer (10 mM NaH2PO4, 10 mM Na2HPO4, pH 7.4), dried overnight and bound counts were measured in a Topcount Scintillation Counter in the presence of Microscint O. % Specific Binding was calculated and curves were plotted with help of in house software where pIC50 values were determined and Kb values were calculated.

Row | SMILES | h5HTT pIC50 [1] | h5HT1A pIC50 [2] | h5HT1A Antagonist pIC50 [3]
1 | C1=CC[C@@H]2CN[C@H](C1)CN2c1ccc2ccccc2c1 | 7.94 | 5.08 | <5
2 | Cc1cc2c(OC[C@@H](O)CN3C[C@@H]4CC=CC[C@H]3CN4c3ccc4ccccc4c3)ccc(C)c2[nH]1 | 7.28 | 6.22 | <5
3 | Cc1cc2c(OC[C@@H](O)CN3C[C@@H]4CC=CC[C@H]3CN4c3ccc4ccccc4c3)ccc(Cl)c2[nH]1 | 7.49 | 6.29 | <5
4 | Fc1ccc(CCN2C[C@@H]3C/C=C\C[C@H]2CN3c2ccccc2-c2ccccc2)cc1 | 5.35 | 5.12 | <5
5 | Clc1cccc(N2C[C@@H]3CC=CC[C@H]2CN3)c1 | 6.42 | <5 | –
